PubChem BioAssay AID1224829 – NIAID | 2016
Purpose: 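Genes needed for LPS-driven NF-kappaB p65 nuclear entry in mouse macrophages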 (follow-up of hits). Cells: mouse RAW264.7 G9 macrophage reporter cells. Reagent: single siRNA against mouse genes, 100 nM. Timing: 2 days of siRNA knock-down, then 40 min of LPS before fixing. Conditions: LPS (Salmonella minnesota R595) at 10 ng/ml. Detection: 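Imaging of GFP-p65 after 40 min of LPS; nuclear over perinuclear ring intensity ratio, scaled to plate median and non-targeting control wells, given as z-score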. Direction: p65 translocation z-score and gene median z-score, per vendor: higher = more nuclear NF-kappaB p65 after LPS. Hit rule: 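Active means the replicate-mean z-score lies beyond plus or minus 2, in either direction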. Meaning of the calls: active = changed p65 translocation (either direction); inactive = no clear change.
Here is an unselected part of about 3,800 deposited reagents. 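Calls cover raised and lowered translocation; gene median uses one vendor's three siRNAs; qiagen siRNAs acted more weakly than ambion siRNAs.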 No sequences are given here.

no.	target gene	PubChem SID	siRNA vendor or control pool	p65 translocation z-score, replicate mean	p65 translocation z-score, replicate 1	p65 translocation z-score, replicate 2	gene median z-score, per vendor	Call
1	Rps4x (ribosomal protein S4, X-linked)	SID315484836	ambion single siRNA	2.88	3.2	2.55	1.81	active
2	Rps4x (ribosomal protein S4, X-linked)	SID315484837	ambion single siRNA	2.25	3.45	1.06	1.81	active
3	Rps4x (ribosomal protein S4, X-linked)	SID315484838	ambion single siRNA	-1.79	-1.84	-1.73	1.81	inactive
4	Rps4x (ribosomal protein S4, X-linked)	SID315484839	qiagen single siRNA	-0.36	0.426	-1.15	-1.15	inactive
5	Rps4x (ribosomal protein S4, X-linked)	SID315484840	qiagen single siRNA	-2.3	-2.66	-1.93	-1.15	active
6	Rps4x (ribosomal protein S4, X-linked)	SID315484841	qiagen single siRNA	-0.534	-0.534		-1.15	inactive
7	Irf8 (interferon regulatory factor 8)	SID315484365	ambion single siRNA	-2.77	-3.21	-2.32	-2.45	active
8	Irf8 (interferon regulatory factor 8)	SID315484366	ambion single siRNA	-2.4	-3.01	-1.79	-2.45	active
9	Irf8 (interferon regulatory factor 8)	SID315484367	ambion single siRNA	-2.13	-2.57	-1.7	-2.45	active
10	Irf8 (interferon regulatory factor 8)	SID315484368	qiagen single siRNA	3.86	2.2	5.53	-1.51	active
11	Irf8 (interferon regulatory factor 8)	SID315484369	qiagen single siRNA	-1.51	-0.952	-2.06	-1.51	inactive
12	Irf8 (interferon regulatory factor 8)	SID315484370	qiagen single siRNA	-3.85	-2.47	-5.23	-1.51	active
13	Cldn6 (claudin 6)	SID315485697	ambion single siRNA	-0.48	-0.386	-0.573	-2.93	inactive
14	Cldn6 (claudin 6)	SID315485698	ambion single siRNA	-3.39	-2.93	-3.84	-2.93	active
15	Cldn6 (claudin 6)	SID315485699	ambion single siRNA	-2.98	-2.98		-2.93	active
16	Cldn6 (claudin 6)	SID315485700	qiagen single siRNA	1.44	1.83	1.04	-1.25	inactive
17	Cldn6 (claudin 6)	SID315485701	qiagen single siRNA	-1.43	-1.25	-1.6	-1.25	inactive
18	Cldn6 (claudin 6)	SID315485702	qiagen single siRNA	-2.42	-2.42		-1.25	active
19	Fbxl22 (F-box and leucine-rich repeat protein 22)	SID315486783	ambion single siRNA	-2.91	-3.69	-2.13	-2.82	active
20	Fbxl22 (F-box and leucine-rich repeat protein 22)	SID315486784	ambion single siRNA	-4.52	-5.54	-3.5	-2.82	active
21	Fbxl22 (F-box and leucine-rich repeat protein 22)	SID315486785	ambion single siRNA	0.854	0.633	1.07	-2.82	inactive
22	Fbxl22 (F-box and leucine-rich repeat protein 22)	SID315486786	qiagen single siRNA	-2.03	0.26	-4.32	-0.0769	active
23	Fbxl22 (F-box and leucine-rich repeat protein 22)	SID315486787	qiagen single siRNA	0.114	-0.737	0.965	-0.0769	inactive
24	Fbxl22 (F-box and leucine-rich repeat protein 22)	SID315486788	qiagen single siRNA	0.473	-0.414	1.36	-0.0769	inactive

Part of the list above, set out differently:
target gene | PubChem SID | siRNA vendor or control pool | p65 translocation z-score, replicate mean | p65 translocation z-score, replicate 1 | p65 translocation z-score, replicate 2 | gene median z-score, per vendor | Call
Cldn6 (claudin 6) | SID315485698 | ambion single siRNA | -3.39 | -2.93 | -3.84 | -2.93 | active
Cldn6 (claudin 6) | SID315485699 | ambion single siRNA | -2.98 | -2.98 | – | -2.93 | active
